{"source": "patent US20200347131A1", "key": {"[1]": {"molecular_target": "T1, human LAG-3 (Uniport entry No. P18627) (human) (UniProt P18627)", "T1 sequence (looked up)": "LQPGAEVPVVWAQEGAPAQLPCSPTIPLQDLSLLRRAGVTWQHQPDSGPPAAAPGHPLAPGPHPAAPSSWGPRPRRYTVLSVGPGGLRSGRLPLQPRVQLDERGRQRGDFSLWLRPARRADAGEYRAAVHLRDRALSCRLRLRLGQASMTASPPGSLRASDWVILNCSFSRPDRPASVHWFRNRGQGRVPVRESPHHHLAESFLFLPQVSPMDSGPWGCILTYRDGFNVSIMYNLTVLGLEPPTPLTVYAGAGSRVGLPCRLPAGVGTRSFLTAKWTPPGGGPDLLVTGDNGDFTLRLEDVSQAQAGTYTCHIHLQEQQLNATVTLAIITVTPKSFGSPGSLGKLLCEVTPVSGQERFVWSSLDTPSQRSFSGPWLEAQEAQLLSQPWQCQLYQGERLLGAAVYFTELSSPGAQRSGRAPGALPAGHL", "test": "indirect ELISA on plate-coated human LAG-3 (0.1 ug/ml), HRP goat anti-mouse IgG detection"}, "[2]": {"molecular_target": "human LAG-3 (His tag) (human) (UniProt P18627)", "test": "BLI (ForteBio Octet), LAG-3 His on Ni-NTA sensor"}, "[3]": {"molecular_target": "T1, human LAG-3 (Uniport entry No. P18627) (human)", "test": "ELISA, LAG-3 coated at 0.1 ug/ml"}, "[4]": {"molecular_target": "human LAG-3 (His tag) (human) (UniProt P18627)", "test": "FACS blocking of LAG-3-His binding to A431 cells (MHC II positive), PE anti-His detection"}}, "note": "Results are given in words; binding and its absence hold for the method and conditions named. Some binding calls cover weakened binding; strength is not graded here.", "data": [{"binder": "murine monoclonal antibody #27 (antibody, IgG4, V domains shown) VH: DVHLQESGPDLVKPSQSLSLTCTVTGYSITSFYSWHWIRQFPGNKLEWMGCIQYSGDTDSNPSLKSRISITRDTSENQLFLHLNSVTTEDTATYYCARSPYDSDPYYVMDYWGQGTSVTVSS VL: DIVMSQSPSSLAVSVGEKITMTCKSSQSLLYSGNQKNYLAWYQQKPGQSPTLLIYWASTRDSGVPDRLTGSGSGTDFTLTISSVKAEDLAVYYCQQYYAYPYTFGGGTKLETK", "values": [{"measurement": "binding", "setting": "[1]", "value": "binds"}, {"measurement": "binding", "setting": "[2]", "value": "binds"}, {"measurement": "binding", "setting": "[3]", "value": "binds"}, {"measurement": "binding", "setting": "[4]", "value": "binds"}]}, {"binder": "humanized antibody AB12T4 (antibody, human IgG4 S228P, kappa, V domains shown) VH: DVQLQESGPGLVKPSQTLSLTCTVTGYSITSFYSWHWIRQFPGKGLEWMGCIQYSGDTDSNPSLKSRITITRDTSENQLFLKLSSVTAADTATYYCARSPYDSDPYYVMDYWGQGTLVTVSS VL: DIVMSQSPDSLAVSLGERITMTCKSSQSLLYSGNQKNYLAWYQQKPGQSPTLLIYWASTRDSGVPDRLTGSGSGTDFTLTISSVQAEDVAVYYCQQYYAYPYTFGQGTKLEIKR", "values": [{"measurement": "binding", "setting": "[2]", "value": "binds"}, {"measurement": "binding", "setting": "[4]", "value": "binds"}]}, {"binder": "human-mouse chimeric antibody AB12T2 (antibody, human IgG4 S228P, kappa, V domains shown) VH: DVHLQESGPDLVKPSQSLSLTCTVTGYSITSFYSWHWIRQFPGNKLEWMGCIQYSGDTDSNPSLKSRISITRDTSENQLFLHLNSVTTEDTATYYCARSPYDSDPYYVMDYWGQGTSVTVSS VL: DIVMSQSPSSLAVSVGEKITMTCKSSQSLLYSGNQKNYLAWYQQKPGQSPTLLIYWASTRDSGVPDRLTGSGSGTDFTLTISSVKAEDLAVYYCQQYYAYPYTFGGGTKLETKR", "values": [{"measurement": "binding", "setting": "[2]", "value": "binds"}]}, {"binder": "humanized antibody AB12T3 (antibody, human IgG4, kappa, V domains shown) VH: DVQLQESGPGLVKPSQTLSLTCTVTGYSITSFYSWHWIRQHPGKGLEWMGCIQYSGDTDSNPSLKSRITITRDTSENQLSLKLSSVTAADTAVYYCARSPYDSDPYYVMDYWGQGTLVTVSS VL: DIVMSQSPDSLAVSLGERATITCKSSQSLLYSGNQKNYLAWYQQKPGQPPTLLIYWASTRDSGVPDRLTGSGSGTDFTLTISSLQAEDVAVYYCQQYYAYPYTFGQGTKLEIKR", "values": [{"measurement": "binding", "setting": "[2]", "value": "binds"}]}, {"binder": "humanized antibody AB12T5 (antibody, human IgG4, kappa, V domains shown) VH: QVQLQESGPGLVKPSQTLSLTCTVSGYSITSFYSWHWIRQHPGKGLEWIGCIQYSGDTDSNPSLKSRVTISVDTSKNQFSLKLSSVTAADTAVYYCARSPYDSDPYYVMDYWGQGTSVTVSS VL: DIVMTQSPDSLAVSLGERATITCKSSQSLLYSGNQKNYLAWYQQKPGQPPKLLIYWASTRDSGVPDRFSGSGSGTDFTLTISSLQAEDVAVYYCQQYYAYPYTFGGGTKLEIKR", "values": [{"measurement": "binding", "setting": "[2]", "value": "binds"}]}, {"binder": "humanized antibody AB12T6 (antibody, human IgG4, kappa, V domains shown) VH: DVQLQESGPGLVKPSQSLSLTCTVSGYSITSFYSWHWIRQHPGKGLEWMGCIQYSGDTYYNPSLKSRVTISVDTSKNQFSLKLSSVTAADTAVYYCARSPYDSDPYYVMDYWGQGTLVTVSS VL: DIVMSQSPDSLAVSLGERATITCKSSQSLLYSGNQKNYLAWYQQKPGQPPKLLIYWASTRDSGVPDRFSGSGSGTDFTLTISSLQAEDVAVYYCQQYYAYPYTFGGGTKLETKR", "values": [{"measurement": "binding", "setting": "[2]", "value": "binds"}]}]}
